Patent US20250250355A1
Where a chain is given by its changes, count along the chain named. Results are given in words; binding and its absence hold for the method and conditions named. Each block holds one binder with its values, some of them ahead of it.

Protein sequences, listed by entry. Tags and fused reporters are not part of them. Lines headed by an entry give the natural chain unless they say otherwise; changes in a name come on top. Residues count along the entry.
UniProt P78324: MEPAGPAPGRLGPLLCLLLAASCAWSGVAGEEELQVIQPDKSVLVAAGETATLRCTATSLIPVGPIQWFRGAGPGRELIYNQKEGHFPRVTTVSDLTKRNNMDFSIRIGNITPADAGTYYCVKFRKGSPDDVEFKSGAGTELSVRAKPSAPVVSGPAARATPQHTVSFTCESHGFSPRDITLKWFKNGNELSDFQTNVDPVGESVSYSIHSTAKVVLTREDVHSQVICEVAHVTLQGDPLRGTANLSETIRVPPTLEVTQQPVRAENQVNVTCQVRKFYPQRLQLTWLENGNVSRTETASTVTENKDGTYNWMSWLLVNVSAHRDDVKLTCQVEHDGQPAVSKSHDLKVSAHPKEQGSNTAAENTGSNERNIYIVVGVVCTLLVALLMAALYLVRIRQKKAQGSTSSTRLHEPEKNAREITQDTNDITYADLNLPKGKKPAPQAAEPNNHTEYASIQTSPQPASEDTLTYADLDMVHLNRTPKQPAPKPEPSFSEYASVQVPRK
UniProt Q9P1W8, residues 29-387: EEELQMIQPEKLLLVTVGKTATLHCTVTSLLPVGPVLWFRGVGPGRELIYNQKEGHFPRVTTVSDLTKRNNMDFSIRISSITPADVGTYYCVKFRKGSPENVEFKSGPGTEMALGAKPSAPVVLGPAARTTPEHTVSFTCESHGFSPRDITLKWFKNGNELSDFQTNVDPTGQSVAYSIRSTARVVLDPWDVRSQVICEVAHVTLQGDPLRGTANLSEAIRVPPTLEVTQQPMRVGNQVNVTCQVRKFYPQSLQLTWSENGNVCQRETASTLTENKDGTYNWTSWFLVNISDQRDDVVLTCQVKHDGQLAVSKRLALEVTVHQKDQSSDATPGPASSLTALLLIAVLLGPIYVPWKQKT

Legend:
[1] = molecular target: human SIRPα-isoform 2-his protein (human); experiment: indirect ELISA on coated human SIRPα-isoform 2-his, OD(450-630)
[2] = molecular target: human SIRPα-V8-his protein (human) (UniProt P78324); experiment: indirect ELISA on coated human SIRPα-V8-his, OD(450-630)
[3] = molecular target: full length human SIRPγ endogenously expressed on Jurkat cells (human) (UniProt Q9P1W8); experiment: cell based binding FACS on Jurkat cells (endogenous human SIRPγ), MFI
[4] = molecular target: full length human SIRPγ endogenously expressed on Jurkat cells (human) (UniProt Q9P1W8); experiment: cell based binding FACS on Jurkat cells (FIG. 6)

B2: E1D5E1F1 (antibody, V domains shown)
VH: QVQLVQSGAEVKKPGASVKVSCKASGYTFTSFAMQWVRRAPGQRLEWMGWIIAGNGDTKYSQNFQDRVTLTRDTSANTAYMDLSGLRSEDTAVYYCARGSGFSGYGYFDKWGQGTLVTVSS
VL: DIQMTQSPSSLSASVGDRVTITCRASHSISSYLNWYQQKPGKVPKLLIYASSSLQSGVPSRFSGNGSGTDFTLIISSLQPEDFATYYCQQSHSIPLTFGGGTKVEIK
- binding [3]: no binding (tested: ~67 nM)
- binding [4]: no binding (tested: starting from 10 µg/mL)

B3: E1H10B7C7 (antibody, V domains shown)
VH: B2 VH with F32Y, R39Q
VL: B2 VL
- binding [4]: no binding (tested: starting from 10 µg/mL)

Further lines, with some results ahead:

- binding [1]: no binding (tested: ~67 nM)
- binding [2]: no binding (tested: ~67 nM)
B1: BI-765063 (antibody, human IgG4 S228P, kappa, V domains shown)
VH: EVQLVQSGAEVKKPGESLRISCKASGYSFTSYWVHWVRQMPGKGLEWMGNIDPSDSDTHYSPSFQGHVTLSVDKSISTAYLQLSSLKASDTAMYYCVRGGTGTLAYFAYWGQGTLVTVSS
VL: DVVMTQSPLSLPVTLGQPASISCRSSQSLVHSYGNTYLYWFQQRPGQSPRLLIYRVSNRFSGVPDRFSGSGSGTDFTLKISRVEAEDVGVYYCFQGTHVPYTFGGGTKVEIKR

- binding [3]: no binding (tested: ~67 nM)
B4: E1F1B1C3 (antibody, V domains shown)
VH: QVQLVQSGAEVKKPGASVKVSCKASGYTFTSNAMHWVRQVPGQGLEWMGWIKAGNGEIKYSQKFQGRVTITRDTSATTAYMELSSLRSEDTAVYYCARGDYYYYYMDVWGKGTTVTVSS
VL: DIQVTQSPSSLSASVGDRVTITCRASQSISDFLNWYQQKPGKAPKLLIHAASSLQNGVPSRFSGSGSGTDFSLTINSLQPEDFATYYCQQSYSTPLSFGGGTKVEIK
- binding [4]: no binding (tested: starting from 10 µg/mL)
